{"source": "paper PMC3303072", "about": "(Cell Biology and Toxicology, 2012)", "experiment": "in vitro", "settings": "human, Cytotoxicity class by LC50"}
{"compound": "CCCCc1oc2ccccc2c1C(=O)c1cc(I)c(OCCN(CC)CC)c(I)c1", "note": "[amiodarone]", "values": [{"measurement": "CC50", "result": "50 to 100", "unit": "µM"}]}
